Consider 1 molecule from patent publication US12552876.

No constants are given. Whether binding was seen depends on the method and setting. Binding can be weak; no strength is given.

The target in assay [1] is HSA-Fuc-GM1 conjugate (human). Description: ELISA on HSA-Fuc-GM1 conjugate; detected with anti-mouse IgG biotin and streptavidin HRP; A450 against 620 nm background. (In general: In an ELISA, binding on a coated surface is turned into a signal by an enzyme label.)
In assay [2] the target is HSA-Fuc-GM1 conjugate (human). Description: ELISA on coated conjugate.

B1: mAb FL134.33 (antibody, V domains shown)
VH: AVQLQESGPDLVKPSQSLSLTCTVTGYSITSGYSWHWIRQFPGNKLEWVGYIHYRGNTNYNPSLKSRVSITRDTYKNQFFLQLNSLTTEDTATYYCAQEPVRNYAMDFWGQGTSVTVSS
VL: DIVMTQSPDTLSVTPGDRVSLSCRASQSISDDLHWYQQKSHESPRLLIKYVSQSISGIPSRFSGSGSRSDFTLTINSVEPEDVGLYYCQNGHGFPPTFGGGTKLEIK
For the molecule B1, the binding result in assay [1] and in assay [2] was “binds” in each case.
